Measurements reported in patent US6605722B2, “Tyrosine derivatives with anti-leukotrienen activity” (Rotta Research Laboratorium S.p.A., priority 2000, dated 2003).

system: contractions induced by LTD4 on isolated guinea-pig trachea; test: Antagonism of contractions induced by LTD4 on isolated guinea-pig trachea in vitro (Schild analysis); settings: A′/A = agonist concentration ratio with and without antagonist; B = negative logarithm of antagonist concentration
Procedure: J. Physiol. Pharmacol. 67 (1989): 17-28], with slight modifications. […] The results were expressed as the effect as a percentage of the maximum contraction induced by 300 μM acetylcholine.

| Compound | Equations of the straight lines (Schild regression) |
| --- | --- |
| O=C(NC(Cc1ccc(OCc2ccc3ccccc3n2)cc1)C(=O)O)c1ccc2ccccc2n1 (racemic) [Compound 1, O-(2-quinolinylmethyl)-N-quinaldoyl-D,L-tyrosine] | log (A′/A − 1) = 9.78 − 1.24B |
| O=C(NC(Cc1ccc(OCc2ccc3ccc(F)cc3n2)cc1)C(=O)O)c1ccc2ccccc2n1 (racemic) [Compound 17, O-(7-fluoro-2-quinolinylmethyl)-N-quinaldoyl-D,L-tyrosine] | log (A′/A − 1) = 3.75 − 0.44B |
| O=C(NC(Cc1ccc(OCc2ccc3ccc(F)cc3n2)cc1)C(=O)O)c1cc2ccccc2cn1 (stereo not drawn) [Compound 22] | log (A′/A − 1) = 5.2 − 0.59B |
